The record followed here is PMC6613617.

Series [1] concerns POLD1 WT (catalytic subunit of Pol delta) + POLD2 + POLD3 + POLD4 + PCNA. Description: EMSA. Conditions: copurified with PCNA, EMSA: 20 mM Tris-HCl pH 8.0, 20 mM KCl, 1 mM EDTA, 0.5 mM TCEP, 20 nM probe, 10-80 nM Pol delta, 25 C 30 min, 7% native PAGE, 0.5x TBE, recombinant protein.
For series [2], the system named is POLD1 WT (catalytic subunit of Pol delta) + POLD2 + POLD3 + POLD4. Description: EMSA. The following applies: without PCNA, EMSA: 20 mM Tris-HCl pH 8.0, 20 mM KCl, 1 mM EDTA, 0.5 mM TCEP, 20 nM probe, 10-80 nM Pol delta, 25 C 30 min, 7% native PAGE, 0.5x TBE, recombinant protein. Background: Mobility shift assays separate free from complexed probe on a gel.
Where [3] appears, read: label: 5'-fluorescein (FAM) on strand 1.
Setting [4] is: label: 5'-fluorescein (FAM), single-stranded DNA.

For at least one entry, the source does not settle the construct or the ends of the probe. At least one verdict was read from the data and is not stated in words by the source.

For “GTTTCTTCAATCTTCATCATACAGGTCAG / CTGACCTGTATGATGAAGATTGAAAGAAAC [dsDNA probe (Fig 3C,D)]”, the binding result in series [1] (setting [3]) and in series [2] (setting [3]) was “binds” in each case.
For “GTTTCTTCAATCTTCATCATACAGGTCAG [ssDNA probe (Fig 3E,F)]”, the binding result in series [1] (setting [4]) and in series [2] (setting [4]) was “binds” each time.
